PubChem BioAssay AID1159584 – Peter MacCallum Cancer Centre – 2016
Here is a random part of about 18,000 deposited reagents. Not all columns of the deposit are shown. No sequences are given here. The record does not give: the amount of reagent, the time to read-out.

Test: 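Genes whose loss is lethal only together with E-cadherin loss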 (primary screen)
System: human MCF10A breast epithelial cells, parental and CDH1-null
Reagents: siRNA against human genes
Measurement: 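ATP luminescence (CellTiter-Glo) viability per line relative to mean mock wells over all plates, and the ratio of CDH1-null to parental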
Scale: CDH1-null / parental viability ratio: higher = CDH1-null cells survive relatively better than parental

Gene | CDH1-null / parental viability ratio
SLC38A3 | 0.91
L3MBTL3 | 0.95
IL17C | 1.19
AMER2 | 1.6
IFT52 | 0.97
CREBBP | 1.08
SDCCAG8 | 1.14
UTP23 | 1.28
SECISBP2 | 0.87
TMEM192 | 0.96
TRAPPC2L | 1.33
TUBE1 | 1
BST2 | 1.16
H3-5 | 0.95
CPN1 | 0.99
ZNF483 | 1.05
THOC7 | 0.81
ARPP21 | 0.87
RPL27 | 1.45
AWAT1 | 1.06
MCUR1 | 0.9
ATP6V0A4 | 1.01
AP2B1 | 0.97
KHK | 0.83
MYL3 | 0.89
RBX1 | 0.95
ATP2B2 | 1.18
OR52I2 | 0.95
SYNDIG1 | 1.1
RADX | 0.91
NUMB | 1.44
TMEM209 | 0.97
ACTN2 | 1.24
CAV2 | 1.58
ASCC3 | 1.12
ICAM4 | 1.47
TLR1 | 1.02
POU3F2 | 0.65
HSBP1 | 0.95
ARF1 | 0.89
GLRX | 1.19
CLEC4G | 1.15
IQUB | 0.71
HPS5 | 1.05
PUS7 | 0.9
ZNF467 | 1.22
TNNT2 | 1.05
SAR1B | 1.08
MN1 | 1.11
PTPRF | 1.19
UBAP1 | 1.09
TMSB4Y | 1.21
CPNE6 | 0.85
INTS10 | 0.92
MYLIP | 1.2
BUB1 | 0.98

The list goes on (4 carried over from the part before).
Gene | CDH1-null / parental viability ratio
CPNE6 | 0.85
INTS10 | 0.92
MYLIP | 1.2
BUB1 | 0.98
IRF5 | 1.03
NUP43 | 1.68
MMRN1 | 1.23
THBS1 | 1.16
ZNF33B | 1.15
MSMB | 0.92
OR13H1 | 1.29
LMO7 | 0.91
CPPED1 | 0.9
ZBTB38 | 0.66
STIM2 | 0.69
PTPN12 | 1.32
RPP38 | 1.15
POLR3H | 0.85
HNRNPF | 0.82
ALKBH4 | 0.89
STRIP2 | 0.93
ZFAND2B | 1.11
RNGTT | 1.1
CXCL8 | 0.81
TM4SF5 | 0.96
MLLT1 | 0.92
ASXL2 | 1.06
SLC26A2 | 1.01
SIRT3 | 1
TAS2R42 | 0.86
SOX4 | 0.79
SSX4 | 0.95
GPLD1 | 0.84
LRRTM1 | 1.2
HK1 | 1
